From US20030086869A1, “Methods and kits for diagnosing a pancreatic-based fat malabsorption disorder” (priority 2001, published 2003)
Some results were stated once for a whole list of compounds, not compound by compound.

Assay: MBT absorption of PA and HA prior to Orlistat in fifteen healthy subjects
Assay type: in vivo, human
Conditions: high absorbers among fifteen healthy subjects prior to Orlistat, PA 2.5 grams and THA 8.0 grams
Description: Fifteen healthy adult subject volunteers (9 women) 18 to 50 years of age were recruited through local advertisements. Exclusion criteria included: any chronic illness known to affect nutrient absorption, body mass index (BMI) of less than 21 or greater than 30 kg/m^2 (i.e., outside of generally accepted healthy adult ranges), therapy with lipid lowering drugs, diabetes mellitus (NIDDM, IDDM) and disorders associated with altered energy metabolism (e.g., hypothyroidism). This adult age range was selected because Orlistat is FDA approved in adults. In addition, adults are able to plan the experimental days for cooperation with four days of the research study diet, outpatient 72-hour stool collection and phlebotomy requirements. […]
Subjects underwent a 12-hour fast from 2100 hours on day #1 of the study. […] Upon arrival at the study center on the morning of day #2, subjects had their weight and height measured, and an experienced phlebotomist inserted a self-retaining intravenous catheter with a heparin lock for serial blood sampling. […] The number and timing of blood samples was determined by the experiments in Example 1, and was expected to be six or fewer samples over an eight-hour or less time period. […]

Compound	absorption in the high absorbers
CCCCCCCCCCCCCCCCC(=O)O [HA, heptadecanoic acid]	90-100%
CCCCCCCCCCCCCCC(=O)O [PA, pentadecanoic acid]	90-100%
